Results from cells or extracts need not show a direct contact.
Molecular target: Ipf1 (endogenous, nuclear extract) (Mus musculus) (UniProt P52946)
Assay: EMSA
Details: binding blocked by anti-Ipf1 antiserum and supershifted by affinity purified antibodies; protein in an extract

The chains behind the UniProt entries cited, without tags or fusion partners. A line that says so, or that is headed by a name, gives the form on record, which may keep a tag or linker.
UniProt P52946, other isoform, or with tags, fused parts or gaps: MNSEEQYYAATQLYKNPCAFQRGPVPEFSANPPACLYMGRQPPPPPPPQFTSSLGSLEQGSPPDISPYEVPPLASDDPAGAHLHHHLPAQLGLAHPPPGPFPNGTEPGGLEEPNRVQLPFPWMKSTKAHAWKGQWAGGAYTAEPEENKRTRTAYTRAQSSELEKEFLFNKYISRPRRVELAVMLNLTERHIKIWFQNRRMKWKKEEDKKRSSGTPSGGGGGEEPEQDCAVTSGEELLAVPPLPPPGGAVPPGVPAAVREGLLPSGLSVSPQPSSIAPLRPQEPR

## GCCCTTAATGGGCCAAACGGCA (double strand) [P1 wild-type insulin promoter element]
  binding result: binds
